Measurements from PubChem BioAssay AID328 (DTP/NCI, 2004).
The list shows only some results of the screen, not a fair sample: its compounds were picked by chemical class. Not every dose and run of a compound is shown. T/C: endpoint of the treated group in % of that of the vehicle group. Some doses have a count of surviving animals in place of a T/C: the source holds a T/C of zero for them, seemingly a mark for toxic or unscored doses. Some doses without a T/C left all or most animals alive at the check, yet need not have been tolerated: survival well below the control is almost never listed, so the zero probably covers shortened survival too. Survivors were counted at the toxicity check, usually on the fifth day, unless a day is given; later deaths do not show. Schedule codes are those of the source, read here as Q, the interval in days (D) or hours (H), X, the number of doses. Where survival is the endpoint, the PubChem record calls one and a half times the control and up active, and a quarter to a half above the control has no call in these data; cut-offs in other NCI protocols can differ. Some doses were run more than once; the values are given in rising order. Some entries show no survivor count and are marked so; the dose need not have been tolerated. Some T/C values are followed by the survivors on the day toxicity was checked, most often the fifth; where neither a count nor a note follows, no animal had died by that day.

Tested on: BDF1 mice, P388 leukemia ip, median survival T/C
Experiment: NCI In Vivo Anticancer Drug Screen. Data for tumor model P388 Leukemia (intraperitoneal) in B6D2F1 (BDF1) mice
Conditions: T/C endpoint: median survival time, higher T/C = longer survival
Procedure, shortened: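 Mice carrying the transplantable tumour receive compound or vehicle. Survival is followed in each arm, and the treated measure is divided by the vehicle measure.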

[1] = dose: 0.78 mg/kg/injection, schedule: Q01DX009 (iv), vehicle: saline

O=[N+]([O-])c1cccc2nn([N+](=O)[O-])cc12
T/C (dose: 6.25 mg/kg/injection, schedule: Q01DX009 (ip), vehicle: saline with Tween-80): 115 % of control
T/C (dose: 12.5 mg/kg/injection, schedule: Q01DX009 (ip), vehicle: saline with Tween-80): 119 % of control
survivor count (dose: 25.0 mg/kg/injection, schedule: Q01DX009 (ip), vehicle: saline with Tween-80): 3 of 6
survivor count (dose: 50.0 mg/kg/injection, schedule: Q01DX009 (ip), vehicle: saline with Tween-80): 2 of 6
survivor count (dose: 100.0 mg/kg/injection, schedule: Q01DX009 (ip), vehicle: saline with Tween-80): 0 of 6
survivor count (dose: 200.0 mg/kg/injection, schedule: Q01DX009 (ip), vehicle: saline with Tween-80): 0 of 6

CC1CN1P(=O)(Nc1ncccn1)N1CC1C (stereo not drawn)
T/C (dose: 50.0 mg/kg/injection, schedule: Q01DX009 (ip), vehicle: saline): 110 % of control
survivor count (dose: 100.0 mg/kg/injection, schedule: Q01DX009 (ip), vehicle: saline): 6 of 6
survivor count (dose: 200.0 mg/kg/injection, schedule: Q01DX009 (ip), vehicle: saline): 4 of 6

CC(=O)Nc1ccc(N(CCCl)CCCl)cc1C
T/C (dose: 12.5 mg/kg/injection, schedule: Q01DX001 (ip), vehicle: Klucel (hydroxypropylcellulose) (HPC)): 129 % of control
T/C (dose: 25.0 mg/kg/injection, schedule: Q01DX001 (ip), vehicle: Klucel (hydroxypropylcellulose) (HPC)): 148 % of control
T/C (dose: 50.0 mg/kg/injection, schedule: Q01DX001 (ip), vehicle: Klucel (hydroxypropylcellulose) (HPC)): 201 % of control [5 of 6 alive]

NC(CC(=O)O)c1cccc(N(CCCl)CCCl)c1 (stereo not drawn)
T/C (dose: 25.0 mg/kg/injection, schedule: Q04DX003 (ip), vehicle: saline with Tween-80): 250 % of control
T/C (dose: 50.0 mg/kg/injection, schedule: Q04DX003 (ip), vehicle: saline with Tween-80): 250 % of control
T/C (dose: 100.0 mg/kg/injection, schedule: Q04DX003 (ip), vehicle: saline with Tween-80): 112 % of control

ClC1(Cl)SC(Cl)(Cl)C(Cl)(Cl)C1(Cl)Cl
T/C (dose: 3.12 mg/kg/injection, schedule: Q01DX009 (ip), vehicle: Klucel (hydroxypropylcellulose) (HPC)): 118 % of control
T/C (dose: 6.25 mg/kg/injection, schedule: Q01DX009 (ip), vehicle: Klucel (hydroxypropylcellulose) (HPC)): 86 % of control [5 of 6 alive]
T/C (dose: 8.2 mg/kg/injection, schedule: Q01DX009 (ip), vehicle: Klucel (hydroxypropylcellulose) (HPC)): 122 % of control
T/C (dose: 12.5 mg/kg/injection, schedule: Q01DX009 (ip), vehicle: Klucel (hydroxypropylcellulose) (HPC)): 133 and 145 % of control
T/C (dose: 18.0 mg/kg/injection, schedule: Q01DX009 (ip), vehicle: Klucel (hydroxypropylcellulose) (HPC)): 127 % of control
survivor count (dose: 25.0 mg/kg/injection, schedule: Q01DX009 (ip), vehicle: Klucel (hydroxypropylcellulose) (HPC)): 5 of 6
T/C (dose: 50.0 mg/kg/injection, schedule: Q01DX009 (ip), vehicle: Klucel (hydroxypropylcellulose) (HPC)): 86 % of control
T/C (dose: 100.0 mg/kg/injection, schedule: Q01DX009 (ip), vehicle: Klucel (hydroxypropylcellulose) (HPC)): 90 % of control

O=Cc1ccc(N(CCI)CCI)cc1
T/C (dose: 75.0 mg/kg/injection, schedule: Q01DX009 (ip), vehicle: saline with Tween-80): 136 % of control
T/C (dose: 132.0 mg/kg/injection, schedule: Q04DX003 (ip), vehicle: saline with Tween-80): 150 % of control
T/C (dose: 150.0 mg/kg/injection, schedule: Q01DX009 (ip), vehicle: saline with Tween-80): 86 % of control
T/C (dose: 200.0 mg/kg/injection, schedule: Q04DX003 (ip), vehicle: saline with Tween-80): 154 % of control
survivor count (dose: 300.0 mg/kg/injection, schedule: Q01DX009 (ip), vehicle: saline with Tween-80): 5 of 6
T/C (dose: 300.0 mg/kg/injection, schedule: Q04DX003 (ip), vehicle: saline with Tween-80): 163 % of control

CCc1nc(C)cn1P(=O)(Oc1ccccc1)OC1CC(C)(C)N(O)C(C)(C)C1 (stereo not drawn)
T/C (dose: 50.0 mg/kg/injection, schedule: Q01DX009 (ip), vehicle: suspension in saline): 100 % of control
T/C (dose: 100.0 mg/kg/injection, schedule: Q01DX009 (ip), vehicle: suspension in saline): 100 % of control
T/C (dose: 200.0 mg/kg/injection, schedule: Q01DX009 (ip), vehicle: suspension in saline): 120 % of control

O=C(O)c1c([N+](=O)[O-])cc([N+](=O)[O-])c(-c2c([N+](=O)[O-])cc([N+](=O)[O-])c(C(=O)O)c2[N+](=O)[O-])c1[N+](=O)[O-]
T/C (dose: 6.25 mg/kg/injection, schedule: Q01DX009 (ip), vehicle: saline): 130 % of control [survivor count not shown]
T/C (dose: 8.3 mg/kg/injection, schedule: Q01DX009 (ip), vehicle: saline): 104 % of control [survivor count not shown]
T/C (dose: 12.5 mg/kg/injection, schedule: Q01DX009 (ip), vehicle: saline): 95 [survivor count not shown] and 135 % of control [survivor count not shown]
T/C (dose: 18.75 mg/kg/injection, schedule: Q01DX009 (ip), vehicle: saline): 109 % of control [survivor count not shown]
T/C (dose: 25.0 mg/kg/injection, schedule: Q01DX009 (ip), vehicle: saline): 130 % of control [survivor count not shown]

CC[C@@H](C)[C@@H]1NC(=O)/C(=C(\C)O)C1=O.c1ccc(CNCCNCc2ccccc2)cc1
T/C (dose: 10.0 mg/kg/injection, schedule: Q01DX010 (ip), vehicle: saline): 90 and 119 % of control
T/C (dose: 14.0 mg/kg/injection, schedule: Q01DX010 (ip), vehicle: saline): 100 and 109 % of control
T/C (dose: 20.0 mg/kg/injection, schedule: Q01DX010 (ip), vehicle: saline): 100 and 104 % of control
T/C (dose: 30.0 mg/kg/injection, schedule: Q01DX010 (ip), vehicle: saline): 90 and 95 % of control

C1CN1
T/C (dose: 0.39 mg/kg/injection, schedule: Q01DX009 (iv), vehicle: saline): 100 and 150 % of control
T/C [1]: 112 % of control
survivor count [1]: 2 of 6
T/C (dose: 0.78 mg/kg/injection, schedule: Q04DX003 (ip), vehicle: saline): 109 % of control
T/C (dose: 1.56 mg/kg/injection, schedule: Q01DX009 (iv), vehicle: saline): 110 and 120 % of control
T/C (dose: 1.56 mg/kg/injection, schedule: Q04DX003 (ip), vehicle: saline): 109 % of control
T/C (dose: 3.12 mg/kg/injection, schedule: Q01DX009 (iv), vehicle: saline): 100 [5 of 6 alive] and 135 % of control
T/C (dose: 3.12 mg/kg/injection, schedule: Q04DX003 (ip), vehicle: saline): 109 % of control
survivor count (dose: 4.6 mg/kg/injection, schedule: Q01DX009 (iv), vehicle: saline): 0 of 6
survivor count (dose: 4.6 mg/kg/injection, schedule: Q04DX003 (ip), vehicle: saline): 3 of 6
survivor count (dose: 4.6 mg/kg/injection, schedule: Q04DX003 (iv), vehicle: saline): 2 of 6
survivor count (dose: 7.0 mg/kg/injection, schedule: Q01DX009 (iv), vehicle: saline): 1 of 6
survivor count (dose: 7.0 mg/kg/injection, schedule: Q04DX003 (ip), vehicle: saline): 3 of 6
survivor count (dose: 7.0 mg/kg/injection, schedule: Q04DX003 (iv), vehicle: saline): 3 of 6
survivor count (dose: 10.0 mg/kg/injection, schedule: Q01DX009 (iv), vehicle: saline): 3 of 6
T/C (dose: 10.0 mg/kg/injection, schedule: Q04DX003 (ip), vehicle: saline): 90 % of control [4 of 6 alive]
survivor count (dose: 10.0 mg/kg/injection, schedule: Q04DX003 (iv), vehicle: saline): 2 of 6
